In patent publication US20070041944A1, “Treating tumors by ENH dislocation of ID proteins” (THE TRUSTEES OF COLUMBIA UNIVERSITY IN THE CITY OF NEW YORK, priority 2005, published 2007):
These are yes or no findings as the source states them, for the method shown. Some results given as binding are weak or reduced against the parent protein; the word gives no strength.

Chains of the proteins cited; added tags and fusions are not shown. Residues count along the entry.
UniProt P15884, residues 564-667: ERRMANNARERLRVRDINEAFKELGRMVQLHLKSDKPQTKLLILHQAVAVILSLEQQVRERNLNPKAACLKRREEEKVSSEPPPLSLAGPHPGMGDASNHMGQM
UniProt Q99081, residues 577-682: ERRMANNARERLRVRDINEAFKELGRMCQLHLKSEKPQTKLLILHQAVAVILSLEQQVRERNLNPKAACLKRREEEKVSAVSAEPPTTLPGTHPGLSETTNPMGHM

What was measured:
Test in all cases: yeast two-hybrid screen of a human fetal brain cDNA library
[1] = target: T1, Id2 clones from the two-hybrid screen (human) (UniProt Q02363)
T1 sequence (looked up): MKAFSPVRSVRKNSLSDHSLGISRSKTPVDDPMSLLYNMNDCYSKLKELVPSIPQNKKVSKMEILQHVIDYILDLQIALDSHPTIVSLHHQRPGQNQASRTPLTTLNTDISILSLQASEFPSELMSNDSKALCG

[2] = target: bHLH transcription factor E2-2 (two-hybrid clones) (human) (UniProt P15884)
[3] = target: bHLH transcription factor HEB (two-hybrid clones) (human) (UniProt Q99081)

Measured: binding

B1: full length Id2 as bait (entire coding sequence of human Id2 in bait plasmid pDBLeu) (protein, UniProt Q02363 1-134, looked up)
chain: T1 sequence (looked up)
binds: [1] | [2] | [3]
